These results are taken from patent US20260258085A1 (METHYCURE BIOTECH CORP., priority 2023, published 2026).

The data set in a line: peptide synthesis. Conditions: whole synthesis, HPLC peak area.

On to “{6-ME-Octanoic acid}-{Dab}-{Thr}-{D-Dab}-{Dab}-{Dab}-{D-Leu}-{Ile}-{Dab}-{Dab}-{Leu}”, for which the “final HPLC purity” value amounted to 97.211%.
